From paper PMC11078746 (Nature, 2024)
Several values for one entry are separate records, joined by “and”; a condition that tells them apart may be missing. Equal values may be shown once. Further values from the same series stand in other lists.

Test: Mouse body weight, SW48 xenograft study with HRO761
Format: in vivo
Method: All animal studies were conducted in accordance with ethics and procedures covered by permit BS-2275 and BS-1975 issued by the Kantonales Veterinäramt Basel-Stadt and in strict adherence to guidelines of the Eidgenössisches Tierschutzgesetz and the Eidgenössische Tierschutzverordnung, Switzerland. All animal studies were approved by the internal ethics committee. All animals had access to food and water ad libitum and were identified with transponders. They were housed in a specific-pathogen-free facility in IVC racks under a 12 h–12 h light–dark cycle. To establish cell-line-derived xenograft models, 6–7-week-old female athymic nude (Crl:NU(NCr)-Foxn1^nu) or SCID-BEIGE (CB17.Cg-PrkdcscidLystbg-J/Crl) mice from Charles River were engrafted subcutaneously with 5 million tumour cells in HBSS (H6648, Sigma-Aldrich). For SNU-407, Lovo, IM95, RL95.2, Ishikawa and IGROV-1, the cells were concentrated in 50% Matrigel (354234, Corning). Patient-derived xenografts were induced and expanded by transplantation as previously described. […] For the efficacy experiment, mice were randomized into groups (n = 5–6) for a mean tumour size of 100–150 mm^3. […] Blood samples were collected on day 7 and 91. […] Tumour responses are reported with the measures of tumour volumes from the treatment start. […] Animals were randomized (n = 3) and tumour samples were collected at 0, 1, 4, 8 and 24 h on the first day and then collected 4 h after the last treatment on day 3, 8, 10, 14 (including a 24 h timepoint), 17 and 21. Tumours were excised, weighed, either frozen in liquid nitrogen and cryogenic dry pulverized with the CryoPrep system (model CP-02, Covaris) or processed to FFPE after fixation. […] On day 12, blood samples were collected for PK analysis. On the last day (3 h after the last treatment), tumours were excised, weighed, frozen in liquid nitrogen and cryogenic dry pulverized for PD analysis.

CCc1c(N2CCN(C(=O)c3ncnc(C)c3O)CC2)c(=O)n2nc(C3=CCOCC3)nc2n1CC(=O)Nc1ccc(C(F)(F)F)cc1Cl [HRO761]
Delta BW change, individual mouse (HRO761 20mg/kg, day 17 post 1st dose, 20 mg/kg): 5.81% and 7.11% and -1.54% and -1.95% and 3.35%
Delta BW change, individual mouse (HRO761 20mg/kg, day 21 post 1st dose, 20 mg/kg): 7.47% and 7.95% and 0% and 3.11% and 5.2%
Delta BW change, individual mouse (HRO761 20mg/kg, day 24 post 1st dose, 20 mg/kg): 4.98% and 5.44% and -1.16% and 0.78% and 4.83%
Delta BW change, individual mouse (HRO761 20mg/kg, day 28 post 1st dose, 20 mg/kg): 5.39% and 4.18% and -2.7% and 3.5% and 5.2%
Delta BW change, individual mouse (HRO761 20mg/kg, day 31 post 1st dose, 20 mg/kg): 5.81% and 3.77% and -5.79% and 2.33% and 5.58%
Delta BW change, individual mouse (HRO761 20mg/kg, day 35 post 1st dose, 20 mg/kg): 7.05% and 3.35% and -3.09% and 4.28% and 5.58%
Delta BW change, individual mouse (HRO761 20mg/kg, day 38 post 1st dose, 20 mg/kg): 6.64% and 3.35% and -6.18% and 1.56% and 5.95%
Delta BW change, individual mouse (HRO761 20mg/kg, day 42 post 1st dose, 20 mg/kg): 9.13% and 4.18% and -3.86% and 2.33% and 7.43%
Delta BW change, individual mouse (HRO761 20mg/kg, day 45 post 1st dose, 20 mg/kg): 5.81% and 4.6% and -4.25% and 5.84% and 7.06%
Delta BW change, individual mouse (HRO761 40mg/kg, day 17 post 1st dose, 40 mg/kg): 4.55% and 6.06% and -1.08% and 2.27% and 5.36%
Delta BW change, individual mouse (HRO761 40mg/kg, day 21 post 1st dose, 40 mg/kg): 7.73% and 11.26% and -2.53% and 3.41% and 8.43%
Delta BW change, individual mouse (HRO761 40mg/kg, day 24 post 1st dose, 40 mg/kg): 8.64% and 9.09% and 0.72% and 4.92% and 11.11%
Delta BW change, individual mouse (HRO761 40mg/kg, day 28 post 1st dose, 40 mg/kg): 9.55% and 5.63% and 2.17% and 6.82% and 8.05%
Delta BW change, individual mouse (HRO761 40mg/kg, day 31 post 1st dose, 40 mg/kg): 9.09% and 6.49% and 2.17% and 6.06% and 4.21%
Delta BW change, individual mouse (HRO761 40mg/kg, day 35 post 1st dose, 40 mg/kg): 9.09% and 8.23% and 4.69% and 6.44% and 6.51%
Delta BW change, individual mouse (HRO761 40mg/kg, day 38 post 1st dose, 40 mg/kg): 8.64% and 6.49% and 3.25% and 7.2% and 7.66%
Delta BW change, individual mouse (HRO761 40mg/kg, day 42 post 1st dose, 40 mg/kg): 7.73% and 7.36% and 2.17% and 5.3% and 11.88%
Delta BW change, individual mouse (HRO761 40mg/kg, day 45 post 1st dose, 40 mg/kg): 7.73% and 6.49% and 2.53% and 8.33% and 10.73%
Delta BW change, individual mouse (HRO761 40mg/kg, day 49 post 1st dose, 40 mg/kg): 9.55% and 8.66% and 3.97% and 10.61% and 11.11%
Delta BW change, individual mouse (HRO761 40mg/kg, day 52 post 1st dose, 40 mg/kg): 8.64% and 10.39% and 5.05% and 6.82% and 10.73%
Delta BW change, individual mouse (HRO761 40mg/kg, day 56 post 1st dose, 40 mg/kg): 7.27% and 8.23% and 3.61% and 8.71% and 10.34%
Delta BW change, individual mouse (HRO761 40mg/kg, day 59 post 1st dose, 40 mg/kg): 9.09% and 8.23% and 4.33% and 9.85% and 9.96%
Delta BW change, individual mouse (HRO761 40mg/kg, day 63 post 1st dose, 40 mg/kg): 10.91% and 9.96% and 6.14% and 8.71% and 14.18%
Delta BW change, individual mouse (HRO761 40mg/kg, day 66 post 1st dose, 40 mg/kg): 10% and 11.69% and 5.05% and 10.98% and 14.18%
Delta BW change, individual mouse (HRO761 40mg/kg, day 70 post 1st dose, 40 mg/kg): 11.36% and 9.52% and 5.05% and 8.71% and 9.96%
Delta BW change, individual mouse (HRO761 40mg/kg, day 73 post 1st dose, 40 mg/kg): 10% and 8.66% and 5.78% and 7.58% and 10.73%
Delta BW change, individual mouse (HRO761 40mg/kg, day 76 post 1st dose, 40 mg/kg): 11.36% and 13.42% and 6.86% and 11.74% and 16.48%
Delta BW change, individual mouse (HRO761 40mg/kg, day 79 post 1st dose, 40 mg/kg): 8.64% and 8.23% and 3.25% and 5.3% and 11.88%
Delta BW change, individual mouse (HRO761 40mg/kg, day 83 post 1st dose, 40 mg/kg): 10% and 8.66% and 6.86% and 9.85% and 1.53%
Delta BW change, individual mouse (HRO761 40mg/kg, day 86 post 1st dose, 40 mg/kg): 8.64% and 11.69% and 4.33% and 10.61% and 13.79%
Delta BW change, individual mouse (HRO761 60mg/kg, day 17 post 1st dose, 60 mg/kg): 0.43% and -3.67% and 7.11% and -5.86% and 0.85%
Delta BW change, individual mouse (HRO761 60mg/kg, day 21 post 1st dose, 60 mg/kg): 0.85% and -1.63% and 6.69% and -3.77% and 2.99%
Delta BW change, individual mouse (HRO761 60mg/kg, day 24 post 1st dose, 60 mg/kg): 2.13% and 2.04% and 7.53% and -2.09% and 2.56%
Delta BW change, individual mouse (HRO761 60mg/kg, day 28 post 1st dose, 60 mg/kg): 6.81% and 5.71% and 8.79% and 0.42% and 3.85%
Delta BW change, individual mouse (HRO761 60mg/kg, day 31 post 1st dose, 60 mg/kg): 7.66% and 4.49% and 6.28% and 3.77% and 4.7%
Delta BW change, individual mouse (HRO761 60mg/kg, day 35 post 1st dose, 60 mg/kg): 4.68% and 5.71% and 5.44% and 0.84% and 5.13%
Delta BW change, individual mouse (HRO761 60mg/kg, day 38 post 1st dose, 60 mg/kg): 2.55% and 3.67% and 3.35% and -1.67% and 3.85%
Delta BW change, individual mouse (HRO761 60mg/kg, day 42 post 1st dose, 60 mg/kg): 4.26% and 4.49% and 5.02% and -1.67% and 5.13%
Delta BW change, individual mouse (HRO761 60mg/kg, day 45 post 1st dose, 60 mg/kg): 3.4% and 2.45% and 3.35% and -2.93% and 5.98%
Delta BW change, individual mouse (HRO761 60mg/kg, day 49 post 1st dose, 60 mg/kg): 3.4% and 6.53% and 6.69% and -3.35% and 4.27%
Delta BW change, individual mouse (HRO761 60mg/kg, day 52 post 1st dose, 60 mg/kg): 3.4% and 6.12% and 7.11% and -10.46% and 5.56%
Delta BW change, individual mouse (HRO761 60mg/kg, day 56 post 1st dose, 60 mg/kg): 3.4% and 6.53% and 5.02% and -6.28% and 5.98%
Delta BW change, individual mouse (HRO761 60mg/kg, day 59 post 1st dose, 60 mg/kg): 5.96% and 8.57% and 5.44% and -2.51% and 6.84%
Delta BW change, individual mouse (HRO761 60mg/kg, day 63 post 1st dose, 60 mg/kg): 3.83% and 5.31% and 5.86% and -2.51% and 12.39%
Delta BW change, individual mouse (HRO761 60mg/kg, day 66 post 1st dose, 60 mg/kg): 6.81% and 8.16% and 6.28% and -0.84% and 9.4%
Delta BW change, individual mouse (HRO761 60mg/kg, day 70 post 1st dose, 60 mg/kg): 5.11% and 9.8% and 6.28% and -2.09% and 7.69%
Delta BW change, individual mouse (HRO761 60mg/kg, day 73 post 1st dose, 60 mg/kg): 5.53% and 8.16% and 7.53% and -2.51% and 8.55%
Delta BW change, individual mouse (HRO761 60mg/kg, day 76 post 1st dose, 60 mg/kg): 7.66% and 11.84% and 10.04% and -1.26% and 11.97%
Delta BW change, individual mouse (HRO761 60mg/kg, day 79 post 1st dose, 60 mg/kg): 5.96% and 11.43% and 6.69% and -1.67% and 7.69%
Delta BW change, individual mouse (HRO761 60mg/kg, day 83 post 1st dose, 60 mg/kg): 6.81% and 9.8% and 6.28% and 0.42% and 9.83%
Delta BW change, individual mouse (HRO761 60mg/kg, day 86 post 1st dose, 60 mg/kg): 7.23% and 11.43% and 6.69% and 2.93% and 10.26%
Delta BW change, individual mouse (HRO761 120mg/kg, day 17 post 1st dose, 120 mg/kg): 4.56% and 2.66% and -2.42% and 0.46% and 0.44%
Delta BW change, individual mouse (HRO761 120mg/kg, day 21 post 1st dose, 120 mg/kg): 7.47% and 4.56% and 2.82% and 5.05% and 6.55%
Delta BW change, individual mouse (HRO761 120mg/kg, day 24 post 1st dose, 120 mg/kg): 9.96% and 7.22% and 2.82% and 4.59% and 8.73%
Delta BW change, individual mouse (HRO761 120mg/kg, day 28 post 1st dose, 120 mg/kg): 8.71% and 5.7% and 4.44% and 2.75% and 7.86%
Delta BW change, individual mouse (HRO761 120mg/kg, day 31 post 1st dose, 120 mg/kg): 9.13% and 7.98% and 3.23% and 0.92% and 11.35%
Delta BW change, individual mouse (HRO761 120mg/kg, day 35 post 1st dose, 120 mg/kg): 8.3% and 6.46% and 6.85% and 5.05% and 10.04%
Delta BW change, individual mouse (HRO761 120mg/kg, day 38 post 1st dose, 120 mg/kg): 6.64% and 7.22% and 4.03% and 0% and 6.55%
Delta BW change, individual mouse (HRO761 120mg/kg, day 42 post 1st dose, 120 mg/kg): 5.81% and 8.37% and 5.65% and 2.29% and 10.92%
Delta BW change, individual mouse (HRO761 120mg/kg, day 45 post 1st dose, 120 mg/kg): 7.88% and 9.51% and 4.03% and 2.75% and 10.92%
Delta BW change, individual mouse (HRO761 120mg/kg, day 49 post 1st dose, 120 mg/kg): 8.3% and 12.55% and 7.26% and 3.67% and 10.92%
Delta BW change, individual mouse (HRO761 120mg/kg, day 52 post 1st dose, 120 mg/kg): 5.81% and 7.6% and 3.23% and 0% and 11.79%
Delta BW change, individual mouse (HRO761 120mg/kg, day 56 post 1st dose, 120 mg/kg): 7.05% and 9.89% and 6.45% and 1.83% and 11.35%
Delta BW change, individual mouse (HRO761 120mg/kg, day 59 post 1st dose, 120 mg/kg): 8.3% and 10.27% and 7.26% and 3.67% and 10.92%
Delta BW change, individual mouse (HRO761 120mg/kg, day 63 post 1st dose, 120 mg/kg): 9.54% and 11.03% and 8.06% and 7.34% and 13.54%
Delta BW change, individual mouse (HRO761 120mg/kg, day 66 post 1st dose, 120 mg/kg): 9.13% and 12.93% and 6.05% and 5.5% and 14.41%
Delta BW change, individual mouse (HRO761 120mg/kg, day 70 post 1st dose, 120 mg/kg): 7.88% and 11.79% and 6.05% and 5.96% and 16.16%
Delta BW change, individual mouse (HRO761 120mg/kg, day 73 post 1st dose, 120 mg/kg): 6.64% and 10.65% and 5.24% and 3.67% and 13.54%
Delta BW change, individual mouse (HRO761 120mg/kg, day 76 post 1st dose, 120 mg/kg): 10.37% and 14.83% and 9.27% and 8.72% and 13.97%
Delta BW change, individual mouse (HRO761 120mg/kg, day 79 post 1st dose, 120 mg/kg): 9.54% and 12.93% and 6.05% and 5.5% and 12.23%
Delta BW change, individual mouse (HRO761 120mg/kg, day 83 post 1st dose, 120 mg/kg): 9.96% and 12.55% and 6.45% and 7.8% and 14.41%
Delta BW change, individual mouse (HRO761 120mg/kg, day 86 post 1st dose, 120 mg/kg): 8.3% and 12.55% and 6.05% and 4.13% and 15.72%
